According to PubChem BioAssay AID248 (DTP/NCI, 2004):
The list is a part of this screen's results and no random one: it gathers tests that were run many times, whatever their T/C, doses with no T/C, and many T/C values between a quarter and a half above the control. Other doses and runs of a compound stand elsewhere. T/C is the treated group as % of the vehicle group. Some doses have a count of surviving animals in place of a T/C: the source holds a T/C of zero for them, seemingly a mark for toxic or unscored doses. Some survivor counts are full or nearly so, which does not show that the dose was tolerated: survival well below the control is almost never listed, so the zero probably covers shortened survival too. Survivors were counted at the toxicity check, usually on the fifth day, unless a day is given; later deaths do not show. Schedule codes are those of the source, read here as Q, the interval in days (D) or hours (H), X, the number of doses. Some entries were tested several times; their values stand side by side, smallest first. Some schedules carry Z or #; the key to these is not given. Some structures stand for samples that the source files as different forms (salt, stereo form or complex); doses refer to the form tested. Where survival is the endpoint, this PubChem deposit counts one and a half times the control or more as active, and values a quarter to a half above the control carry no call in these data; other NCI protocols may use other cut-offs. Some T/C values are followed by the survivors on the day toxicity was checked, most often the fifth; where none is given, no animal had died by that day.

Test system: L1210 leukemia ip in BDF1 mice, survival T/C
Test: NCI In Vivo Anticancer Drug Screen. Data for tumor model L1210 Leukemia (intraperitoneal) in B6D2F1 (BDF1) mice
Conditions: T/C endpoint: mean survival time, higher T/C = longer survival
[1] = dose: 200.0 mg/kg/injection, schedule: Q04DX003 (ip), vehicle: saline with Tween-80
[2] = dose: 400.0 mg/kg/injection, schedule: Q04DX003 (ip), vehicle: saline
[3] = dose: 400.0 mg/kg/injection, schedule: Q01DX001 (ip), vehicle: saline
[4] = dose: 400.0 mg/kg/injection, schedule: Q01DX009 (ip), vehicle: Klucel (hydroxypropylcellulose) (HPC)
[5] = dose: 200.0 mg/kg/injection, schedule: Q01DX001 (ip), vehicle: saline
[6] = dose: 300.0 mg/kg/injection, schedule: Q01DX001 (ip), vehicle: saline
[7] = dose: 400.0 mg/kg/injection, schedule: Q04DX002 (ip), vehicle: saline with Tween-80

CN(C)N=Nc1ccccc1
T/C (dose: 16.0 mg/kg/injection, schedule: Q03HX024 (ip), vehicle: other): 125 % of control | T/C (dose: 25.0 mg/kg/injection, schedule: Q04DX003 (ip), vehicle: saline with Tween-80): 129 % of control | T/C (dose: 30.0 mg/kg/injection, schedule: Q01DX015 (ip), vehicle: carboxymethylcellulose (CMC)): 134 % of control | T/C (dose: 32.0 mg/kg/injection, schedule: Q03HX008 (ip), vehicle: other): 131 % of control | T/C (dose: 32.0 mg/kg/injection, schedule: Q03HX016 (ip), vehicle: other): 127 % of control | T/C (dose: 50.0 mg/kg/injection, schedule: Q04DX003 (ip), vehicle: saline with Tween-80): 132 % of control | T/C (dose: 54.0 mg/kg/injection, schedule: Q01DX015 (ip), vehicle: carboxymethylcellulose (CMC)): 136 % of control | T/C (dose: 60.0 mg/kg/injection, schedule: Q01DX015 (ip), vehicle: carboxymethylcellulose (CMC)): 129 % of control | survivor count (dose: 64.0 mg/kg/injection, schedule: Q01DX005 (iv), vehicle: other): 6 of 10 | T/C (dose: 64.0 mg/kg/injection, schedule: Q01DX009 (sc), vehicle: other): 142 % of control | T/C (dose: 64.0 mg/kg/injection, schedule: Q04DX003 (ip), vehicle: saline): 134 % of control | T/C (dose: 80.0 mg/kg/injection, schedule: Q01DX015 (ip), vehicle: carboxymethylcellulose (CMC)): 137 % of control | T/C (dose: 90.0 mg/kg/injection, schedule: Q01DX015 (ip), vehicle: carboxymethylcellulose (CMC)): 129 % of control [5 of 6 alive] | survivor count (dose: 120.0 mg/kg/injection, schedule: Q01DX015 (ip), vehicle: carboxymethylcellulose (CMC)): 1 of 6, 2 of 6, 6 of 6 | T/C (dose: 125.0 mg/kg/injection, schedule: Q01DX001 (ip), vehicle: saline with Tween-80): 128 % of control | survivor count (dose: 128.0 mg/kg/injection, schedule: Q01DX005 (iv), vehicle: other): 0 of 10 | survivor count (dose: 128.0 mg/kg/injection, schedule: Q01DX009 (ip), vehicle: other): 3 of 10 | survivor count (dose: 128.0 mg/kg/injection, schedule: Q01DX009 (sc), vehicle: other): 9 of 10 | T/C (dose: 128.0 mg/kg/injection, schedule: Q04DX003 (ip), vehicle: other): 147 % of control | survivor count (dose: 128.0 mg/kg/injection, schedule: Q04DX003 (ip), vehicle: saline): 6 of 6 | T/C (dose: 128.0 mg/kg/injection, schedule: Q08DX002 (ip), vehicle: other): 130 % of control | survivor count [1]: 1 of 10 | survivor count (dose: 250.0 mg/kg/injection, schedule: Q01DX001 (ip), vehicle: saline with Tween-80): 0 of 10 | survivor count (dose: 256.0 mg/kg/injection, schedule: Q01DX001 (ip), vehicle: other): 3 of 10 | T/C (dose: 256.0 mg/kg/injection, schedule: Q01DX001 (oral), vehicle: other): 132 % of control [9 of 10 alive] | survivor count (dose: 256.0 mg/kg/injection, schedule: Q01DX009 (oral), vehicle: other): 0 of 10 | survivor count (dose: 256.0 mg/kg/injection, schedule: Q04DX003 (ip), vehicle: other): 6 of 10 | survivor count (dose: 256.0 mg/kg/injection, schedule: Q04DX003 (ip), vehicle: saline): 0 of 6 | survivor count (dose: 256.0 mg/kg/injection, schedule: Q08DX002 (ip), vehicle: other): 3 of 10 | survivor count (dose: 400.0 mg/kg/injection, schedule: Q01DX001 (ip), vehicle: carboxymethylcellulose (CMC)): 0 of 4 | survivor count (dose: 512.0 mg/kg/injection, schedule: Q01DX001 (oral), vehicle: other): 0 of 10 | survivor count (dose: 512.0 mg/kg/injection, schedule: Q01DX009 (oral), vehicle: other): 0 of 10 | survivor count (dose: 1024.0 mg/kg/injection, schedule: Q01DX001 (oral), vehicle: other): 0 of 10

CCCCCCCCSCCCCCCCCCCCSCCCCCCCC
survivor count (dose: 400.0 mg/kg/injection, schedule: Q01DX001 (ip), vehicle: Klucel (hydroxypropylcellulose) (HPC)): 6 of 6

OCC1OC(n2ccc3c2ncn2nnnc32)C(O)C1O (stereo not given)
survivor count (dose: 50.0 mg/kg/injection, schedule: Q01DX009 (ip), vehicle: saline): 5 of 6 | survivor count (dose: 75.0 mg/kg/injection, schedule: Q01DX009 (ip), vehicle: saline): 5 of 6 | survivor count (dose: 100.0 mg/kg/injection, schedule: Q04DX003 (ip), vehicle: saline): 6 of 6 | survivor count (dose: 200.0 mg/kg/injection, schedule: Q04DX003 (ip), vehicle: saline): 6 of 6 | survivor count [2]: 1 of 6

CCN1C(=O)C2C3C=CC(C3)C2C1=O (stereo not given)
survivor count (dose: 100.0 mg/kg/injection, schedule: Q04DX003 (ip), vehicle: saline with Tween-80): 1 of 3 and 2 of 6 | survivor count [1]: 1 of 6 | survivor count (dose: 400.0 mg/kg/injection, schedule: Q04DX003 (ip), vehicle: saline with Tween-80): 0 of 6

O=C(O)CO
survivor count [3]: 2 of 4

NC1=NC(=O)C(c2ccccc2)O1 (stereo not given)
survivor count [4]: 0 of 6

C/C=C\S(=O)(=O)c1ccccc1
survivor count (dose: 100.0 mg/kg/injection, schedule: Q04DX002 (ip), vehicle: Klucel (hydroxypropylcellulose) (HPC)): 0 of 3 | survivor count (dose: 400.0 mg/kg/injection, schedule: Q04DX002 (ip), vehicle: Klucel (hydroxypropylcellulose) (HPC)): 0 of 3

CC(F)C(Br)C(=O)O (stereo not given)
survivor count (dose: 400.0 mg/kg/injection, schedule: Q04DX002 (ip), vehicle: saline): 1 of 3

CC(C)CC(N)C(=O)NCCCCCCNCCCCCCNC(=O)C(N)CC(C)C (stereo not given)
survivor count [3]: 0 of 4

O=CC(CO)CC(C=O)n1cnc2c(=O)[nH]cnc21 (stereo not given)
T/C [5]: 129 % of control | T/C [3]: 137 % of control

COC(=O)c1ccc(C(=O)O)[n+]([O-])c1
survivor count [4]: 5 of 6

CC(C)NCC(O)c1ccc(O)c(O)c1 (stereo not given)
T/C (dose: 200.0 mg/kg/injection, schedule: Q01DX009 (ip), vehicle: Klucel (hydroxypropylcellulose) (HPC)): 133 % of control | T/C [4]: 127 % of control [4 of 6 alive] | survivor count [4]: 3 of 6 | survivor count (dose: 400.0 mg/kg/injection, schedule: Q01DX009 (ip), vehicle: saline): 2 of 5

O=C1C=C(Cl)C(=O)c2ccccc21
survivor count (dose: 18.75 mg/kg/injection, schedule: Q01DX001 (ip), vehicle: steroid suspending solution): 3 of 6 | survivor count (dose: 37.5 mg/kg/injection, schedule: Q01DX001 (ip), vehicle: steroid suspending solution): 0 of 6

CSc1ncnc2c1c(C#N)cn2C1OC(CO)C(O)C1O (stereo not given)
T/C (dose: 89.0 mg/kg/injection, schedule: Q01DX001 (ip), vehicle: saline): 136 % of control | T/C (dose: 133.0 mg/kg/injection, schedule: Q01DX001 (ip), vehicle: saline): 140 % of control [5 of 6 alive] | survivor count [5]: 1 of 6 | survivor count [6]: 0 of 6

CC1=CC(=O)C(c2ccc(O)cc2O)=CC1=O
survivor count (dose: 150.0 mg/kg/injection, schedule: Q01DX001 (ip), vehicle: other): 1 of 6 | survivor count (dose: 300.0 mg/kg/injection, schedule: Q01DX001 (ip), vehicle: other): 0 of 6

C=CC1(C)CCC2C(=CCC3C(C)(COC4OC(CO)C(O)C(O)C4O)C(O)CCC23C)C1 (stereo not given)
survivor count [6]: 0 of 6

CCCCCCCCCCCC[N+](C)(C)C(C)Cc1ccccc1 (stereo not given)
survivor count (dose: 40.0 mg/kg/injection, schedule: Q01DX001 (ip), vehicle: saline): 2 of 6 | survivor count (dose: 75.0 mg/kg/injection, schedule: Q01DX001 (ip), vehicle: saline): 0 of 6 | survivor count (dose: 150.0 mg/kg/injection, schedule: Q01DX001 (ip), vehicle: saline): 0 of 6 | survivor count [6]: 0 of 6

CCN(CC)CC(=O)NCC(CC)(CCN1CCOCC1)c1cccc2ccccc12 (stereo not given)
survivor count [2]: 5 of 6

CCCCOC(=O)c1cccnc1
survivor count [1]: 6 of 6

O=S(=O)(CCCl)Cc1ccccc1
survivor count [7]: 0 of 3

CCCCN(CCCC)N=Nc1c[nH]c(=O)[nH]c1=O
survivor count (dose: 32.0 mg/kg/injection, schedule: Q01DX Z (ip), vehicle: carboxymethylcellulose (CMC)): 6 of 6 | survivor count (dose: 64.0 mg/kg/injection, schedule: Q01DX Z (ip), vehicle: carboxymethylcellulose (CMC)): 0 of 6

CCCCCSP(=O)(SCCCCC)c1ccccc1
survivor count [4]: 0 of 6

CCCCCCCCCCCCCCCC(=O)Nc1cccc(C)c1C
survivor count [7]: 3 of 3
